The list shows a part of the results.

Sequences of proteins named here, by UniProt entry; tags and fusion partners are left off. A change or cut given only in a name is not applied to a line headed by its entry.
UniProt Q8N1Q1: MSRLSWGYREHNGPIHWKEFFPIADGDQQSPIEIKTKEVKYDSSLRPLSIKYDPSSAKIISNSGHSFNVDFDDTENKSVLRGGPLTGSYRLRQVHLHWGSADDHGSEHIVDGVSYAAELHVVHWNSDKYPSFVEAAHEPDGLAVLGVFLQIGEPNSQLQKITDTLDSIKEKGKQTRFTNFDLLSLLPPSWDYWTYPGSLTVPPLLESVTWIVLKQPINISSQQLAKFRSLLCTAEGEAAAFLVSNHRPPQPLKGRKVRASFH
UniProt P05937: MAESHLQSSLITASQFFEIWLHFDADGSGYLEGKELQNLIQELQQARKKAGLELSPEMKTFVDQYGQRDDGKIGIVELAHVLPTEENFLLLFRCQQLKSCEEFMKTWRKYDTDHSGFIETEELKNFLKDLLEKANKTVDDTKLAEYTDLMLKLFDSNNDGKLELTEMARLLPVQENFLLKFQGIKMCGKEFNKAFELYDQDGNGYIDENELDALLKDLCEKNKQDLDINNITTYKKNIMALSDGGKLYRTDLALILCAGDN
UniProt Q96GQ5: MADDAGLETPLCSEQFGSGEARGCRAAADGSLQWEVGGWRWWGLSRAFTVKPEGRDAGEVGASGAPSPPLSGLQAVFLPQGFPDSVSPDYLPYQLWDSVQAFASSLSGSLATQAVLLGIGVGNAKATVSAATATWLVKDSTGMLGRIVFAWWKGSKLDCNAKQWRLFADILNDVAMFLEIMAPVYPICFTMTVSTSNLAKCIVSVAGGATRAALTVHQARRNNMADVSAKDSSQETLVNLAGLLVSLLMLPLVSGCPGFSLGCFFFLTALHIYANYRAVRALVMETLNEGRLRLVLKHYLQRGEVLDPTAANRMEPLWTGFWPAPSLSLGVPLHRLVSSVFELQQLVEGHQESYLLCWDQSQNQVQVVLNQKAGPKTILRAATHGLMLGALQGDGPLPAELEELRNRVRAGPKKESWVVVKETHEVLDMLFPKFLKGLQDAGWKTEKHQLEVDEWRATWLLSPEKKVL
UniProt Q96LT7: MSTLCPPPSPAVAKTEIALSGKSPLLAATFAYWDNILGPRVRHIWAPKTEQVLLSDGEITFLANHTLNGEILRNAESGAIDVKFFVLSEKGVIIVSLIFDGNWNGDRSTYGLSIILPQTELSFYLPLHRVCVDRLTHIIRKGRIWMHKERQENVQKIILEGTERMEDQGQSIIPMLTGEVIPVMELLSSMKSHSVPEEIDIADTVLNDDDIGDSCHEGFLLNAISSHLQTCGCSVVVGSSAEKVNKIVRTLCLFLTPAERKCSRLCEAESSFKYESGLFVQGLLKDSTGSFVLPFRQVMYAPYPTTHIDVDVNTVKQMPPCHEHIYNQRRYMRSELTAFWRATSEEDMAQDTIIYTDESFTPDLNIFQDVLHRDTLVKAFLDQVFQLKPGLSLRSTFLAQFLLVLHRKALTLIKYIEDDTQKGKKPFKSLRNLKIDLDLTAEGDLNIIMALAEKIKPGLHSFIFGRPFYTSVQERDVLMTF
UniProt P47756, whole entry, looked up: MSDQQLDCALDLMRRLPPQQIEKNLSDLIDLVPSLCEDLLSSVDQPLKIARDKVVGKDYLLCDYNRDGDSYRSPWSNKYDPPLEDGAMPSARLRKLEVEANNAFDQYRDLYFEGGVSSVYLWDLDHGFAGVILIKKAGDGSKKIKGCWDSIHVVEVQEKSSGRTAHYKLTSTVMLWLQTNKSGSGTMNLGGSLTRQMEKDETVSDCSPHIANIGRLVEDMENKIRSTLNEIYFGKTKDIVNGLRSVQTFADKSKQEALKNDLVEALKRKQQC
UniProt P10643, whole entry, looked up: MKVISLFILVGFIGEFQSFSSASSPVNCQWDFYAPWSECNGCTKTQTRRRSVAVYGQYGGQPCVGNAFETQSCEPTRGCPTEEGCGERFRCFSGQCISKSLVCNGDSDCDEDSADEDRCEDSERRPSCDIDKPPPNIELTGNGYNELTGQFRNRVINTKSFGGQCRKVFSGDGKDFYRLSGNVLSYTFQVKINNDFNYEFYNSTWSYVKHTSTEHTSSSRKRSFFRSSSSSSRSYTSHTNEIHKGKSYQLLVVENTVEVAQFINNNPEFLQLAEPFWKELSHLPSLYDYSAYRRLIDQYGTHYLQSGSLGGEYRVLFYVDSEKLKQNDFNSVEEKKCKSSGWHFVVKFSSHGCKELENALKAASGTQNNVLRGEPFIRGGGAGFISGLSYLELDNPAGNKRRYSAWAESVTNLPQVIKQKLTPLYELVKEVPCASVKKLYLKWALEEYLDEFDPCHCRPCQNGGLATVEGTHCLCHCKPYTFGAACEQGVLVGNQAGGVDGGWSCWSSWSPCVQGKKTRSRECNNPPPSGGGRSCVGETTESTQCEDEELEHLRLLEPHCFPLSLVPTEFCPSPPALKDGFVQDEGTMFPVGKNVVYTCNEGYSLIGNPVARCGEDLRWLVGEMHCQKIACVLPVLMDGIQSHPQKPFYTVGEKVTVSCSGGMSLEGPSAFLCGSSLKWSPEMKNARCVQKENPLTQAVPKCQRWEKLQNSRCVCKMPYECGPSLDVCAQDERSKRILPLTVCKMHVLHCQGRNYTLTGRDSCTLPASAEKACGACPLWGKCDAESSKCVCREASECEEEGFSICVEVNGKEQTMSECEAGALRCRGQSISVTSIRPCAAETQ
UniProt Q96B23: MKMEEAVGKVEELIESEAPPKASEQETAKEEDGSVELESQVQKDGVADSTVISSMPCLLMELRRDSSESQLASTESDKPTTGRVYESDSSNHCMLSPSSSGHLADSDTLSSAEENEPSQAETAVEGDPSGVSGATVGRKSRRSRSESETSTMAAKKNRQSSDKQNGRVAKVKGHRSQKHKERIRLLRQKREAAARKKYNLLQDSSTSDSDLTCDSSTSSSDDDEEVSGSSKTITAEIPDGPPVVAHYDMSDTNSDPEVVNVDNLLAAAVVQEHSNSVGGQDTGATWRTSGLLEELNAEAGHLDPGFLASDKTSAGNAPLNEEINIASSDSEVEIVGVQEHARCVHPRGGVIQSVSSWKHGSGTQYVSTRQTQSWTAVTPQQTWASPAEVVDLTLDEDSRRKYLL
UniProt O43852: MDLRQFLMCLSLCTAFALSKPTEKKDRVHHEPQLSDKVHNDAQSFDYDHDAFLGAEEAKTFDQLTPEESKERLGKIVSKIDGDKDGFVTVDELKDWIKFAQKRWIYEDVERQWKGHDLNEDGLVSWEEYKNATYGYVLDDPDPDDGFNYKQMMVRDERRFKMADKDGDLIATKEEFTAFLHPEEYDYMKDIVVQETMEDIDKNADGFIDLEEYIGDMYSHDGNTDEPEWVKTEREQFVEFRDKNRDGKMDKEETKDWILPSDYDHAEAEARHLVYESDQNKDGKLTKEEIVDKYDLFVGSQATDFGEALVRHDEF
UniProt Q8IXQ3: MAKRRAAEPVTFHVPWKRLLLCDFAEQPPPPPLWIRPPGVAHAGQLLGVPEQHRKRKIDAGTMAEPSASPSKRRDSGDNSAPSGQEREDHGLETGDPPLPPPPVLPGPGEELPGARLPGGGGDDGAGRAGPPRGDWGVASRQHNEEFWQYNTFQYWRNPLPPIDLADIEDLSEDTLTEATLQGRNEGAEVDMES
UniProt Q14444, whole entry, looked up: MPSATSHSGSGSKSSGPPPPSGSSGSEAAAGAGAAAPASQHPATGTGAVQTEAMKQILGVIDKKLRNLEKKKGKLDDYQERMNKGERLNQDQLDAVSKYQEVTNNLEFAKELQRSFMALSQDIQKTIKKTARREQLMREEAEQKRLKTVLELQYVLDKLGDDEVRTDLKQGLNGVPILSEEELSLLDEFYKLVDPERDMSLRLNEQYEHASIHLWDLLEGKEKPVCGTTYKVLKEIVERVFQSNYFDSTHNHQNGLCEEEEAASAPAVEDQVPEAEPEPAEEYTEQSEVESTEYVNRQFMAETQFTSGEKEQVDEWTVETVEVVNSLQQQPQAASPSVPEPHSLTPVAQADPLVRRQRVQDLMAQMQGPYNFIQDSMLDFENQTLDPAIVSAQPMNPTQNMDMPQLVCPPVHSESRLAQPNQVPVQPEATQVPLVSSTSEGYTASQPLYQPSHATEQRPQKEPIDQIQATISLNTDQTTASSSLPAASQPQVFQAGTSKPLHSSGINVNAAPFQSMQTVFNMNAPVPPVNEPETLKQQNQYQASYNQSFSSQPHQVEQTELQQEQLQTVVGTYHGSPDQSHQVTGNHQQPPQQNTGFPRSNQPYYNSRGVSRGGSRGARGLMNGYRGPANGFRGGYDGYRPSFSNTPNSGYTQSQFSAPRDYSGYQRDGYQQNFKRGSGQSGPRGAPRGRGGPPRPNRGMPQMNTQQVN
UniProt Q8TCD1: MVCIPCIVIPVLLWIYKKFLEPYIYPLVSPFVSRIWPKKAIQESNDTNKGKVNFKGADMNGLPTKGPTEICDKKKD
UniProt P27824: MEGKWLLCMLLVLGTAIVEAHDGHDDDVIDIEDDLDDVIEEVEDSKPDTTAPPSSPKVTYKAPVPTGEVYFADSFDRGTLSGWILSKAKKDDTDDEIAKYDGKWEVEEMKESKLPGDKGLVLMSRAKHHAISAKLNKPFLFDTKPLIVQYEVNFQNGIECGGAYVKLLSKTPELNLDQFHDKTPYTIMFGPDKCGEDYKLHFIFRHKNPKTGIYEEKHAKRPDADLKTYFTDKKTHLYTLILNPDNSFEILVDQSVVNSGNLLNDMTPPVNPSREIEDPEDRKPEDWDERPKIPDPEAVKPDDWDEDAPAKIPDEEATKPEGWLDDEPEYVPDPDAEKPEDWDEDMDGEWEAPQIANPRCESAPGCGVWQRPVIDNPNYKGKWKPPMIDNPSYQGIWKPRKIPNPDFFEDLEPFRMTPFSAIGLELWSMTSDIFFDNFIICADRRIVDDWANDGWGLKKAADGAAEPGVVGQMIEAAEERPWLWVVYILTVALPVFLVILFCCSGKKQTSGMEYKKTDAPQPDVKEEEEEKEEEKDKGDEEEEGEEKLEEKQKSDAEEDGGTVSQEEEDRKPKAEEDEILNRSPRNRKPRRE
UniProt Q8N999, whole entry, looked up: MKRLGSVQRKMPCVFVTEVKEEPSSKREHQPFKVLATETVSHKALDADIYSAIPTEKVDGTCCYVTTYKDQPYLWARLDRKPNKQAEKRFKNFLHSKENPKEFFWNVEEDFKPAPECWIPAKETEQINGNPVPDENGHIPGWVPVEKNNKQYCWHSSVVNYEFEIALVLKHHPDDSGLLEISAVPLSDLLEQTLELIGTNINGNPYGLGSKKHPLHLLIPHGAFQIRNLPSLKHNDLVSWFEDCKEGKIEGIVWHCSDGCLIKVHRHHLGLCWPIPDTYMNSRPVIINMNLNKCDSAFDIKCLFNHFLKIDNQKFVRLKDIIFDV
UniProt Q9Y297: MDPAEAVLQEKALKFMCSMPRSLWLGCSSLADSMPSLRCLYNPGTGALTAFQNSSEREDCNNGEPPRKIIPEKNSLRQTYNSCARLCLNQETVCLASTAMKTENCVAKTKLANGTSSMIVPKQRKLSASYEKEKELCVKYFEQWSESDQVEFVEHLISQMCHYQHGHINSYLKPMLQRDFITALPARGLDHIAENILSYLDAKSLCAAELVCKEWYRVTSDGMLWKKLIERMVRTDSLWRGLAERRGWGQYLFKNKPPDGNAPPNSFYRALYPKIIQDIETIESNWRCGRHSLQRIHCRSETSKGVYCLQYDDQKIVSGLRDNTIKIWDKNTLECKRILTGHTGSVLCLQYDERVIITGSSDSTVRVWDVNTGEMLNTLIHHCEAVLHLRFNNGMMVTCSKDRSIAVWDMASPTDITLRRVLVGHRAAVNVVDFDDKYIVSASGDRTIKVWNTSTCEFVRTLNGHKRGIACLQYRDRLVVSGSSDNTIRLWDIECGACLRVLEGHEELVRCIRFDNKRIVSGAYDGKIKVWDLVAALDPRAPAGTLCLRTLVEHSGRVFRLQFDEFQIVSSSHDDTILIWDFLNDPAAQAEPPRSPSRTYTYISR
UniProt Q7KYR7: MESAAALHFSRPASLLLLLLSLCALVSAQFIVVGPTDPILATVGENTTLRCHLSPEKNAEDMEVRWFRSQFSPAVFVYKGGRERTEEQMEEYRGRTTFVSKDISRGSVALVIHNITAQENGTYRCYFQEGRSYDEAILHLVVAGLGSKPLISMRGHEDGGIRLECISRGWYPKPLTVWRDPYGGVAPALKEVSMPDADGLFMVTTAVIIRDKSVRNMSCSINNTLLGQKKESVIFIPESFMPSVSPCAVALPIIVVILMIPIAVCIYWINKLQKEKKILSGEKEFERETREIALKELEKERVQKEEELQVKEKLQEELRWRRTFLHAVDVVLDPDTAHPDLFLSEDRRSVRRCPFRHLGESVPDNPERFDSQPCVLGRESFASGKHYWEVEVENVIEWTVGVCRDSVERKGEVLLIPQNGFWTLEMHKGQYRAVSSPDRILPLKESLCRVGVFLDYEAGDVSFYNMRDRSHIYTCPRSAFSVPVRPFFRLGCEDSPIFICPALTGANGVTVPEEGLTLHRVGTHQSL
UniProt Q96LW7: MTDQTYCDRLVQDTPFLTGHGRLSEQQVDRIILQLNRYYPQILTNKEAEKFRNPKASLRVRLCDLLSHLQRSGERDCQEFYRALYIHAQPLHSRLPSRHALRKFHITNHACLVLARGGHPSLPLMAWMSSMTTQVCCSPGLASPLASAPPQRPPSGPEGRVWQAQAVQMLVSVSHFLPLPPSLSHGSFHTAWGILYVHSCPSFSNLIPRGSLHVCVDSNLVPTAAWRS

Compound in one experiment: Cc1nc(Nc2ncc(C(=O)Nc3c(C)cccc3Cl)s2)cc(N2CCN(CCO)CC2)n1 [dasatinib]
Put plainly: log2 fold change, soluble protein after heating vs DMSO (PISA); higher = thermal stabilisation; K562 cells, 10 uM, 30 min; active = over 0.2 and 3.5 SD of the protein, either way, in both replicates (recomputed). In short, it runs like this:
(§1)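 Quantification of soluble protein used TMTpro 16plex LC-MS/MS, with channel sums equalised. Samples were the supernatant after 21,000xg for 90 min of pooled aliquots from K562 cells (2×10^6 cells/mL) treated with 10 μM compound for 30 min, heated for 3 min over 48°C-58°C, and extracted in PBS with 0.5% NP-40 at 4°C. Values, from duplicates, describe thermal stability against control samples on a log2 fold-change scale.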
Turning to CA13 (UniProt Q8N1Q1), the log2 fold change was inactive: -0.112.
Still for that read-out and setting: the value for CALB1 (UniProt P05937) was inactive: 0.014; that for C16orf58 (UniProt Q96GQ5) was inactive: -0.046.
On the same count and under the same terms, then C9orf72 (UniProt Q96LT7), with inactive: -0.004; and C19orf53 (UniProt Q9UNZ5), with inactive: 0.222.
As for CAPZB isoform 2 (UniProt P47756), the log2 fold change was inactive: 0.088.
Still for that read-out and setting: the value for C7 (UniProt P10643) was inactive: 0.06; that for C18orf25 isoform 2 (UniProt Q96B23) was inactive: -0.098.
For the target CARD8 isoform 5 (UniProt Q9Y2G2), the log2 fold change is inactive: -0.112.

Compound in the next experiment: Cc1ncc(-c2ccnc(Nc3ccc(S(C)(=O)=O)cc3)n2)n1C(C)C
Described as above. The gist of the method: as §1
As to C8orf76 (UniProt Q96K31), the log2 fold change is inactive: 0.008.
On to C6orf89 isoform 2 (UniProt Q6UWU4), for which the log2 fold change is inactive: 0.033.
Still for that read-out and setting: the value for CALCOCO1 (UniProt Q9P1Z2) was inactive: 0.019; that for CALU isoform 4 (UniProt O43852) was inactive: -0.005; that for C1GALT1C1 (UniProt Q96EU7) was inactive: -0.09.
With C9orf40 (UniProt Q8IXQ3), the log2 fold change is inactive: -0.093.
With CAPRIN1 (UniProt Q14444), the log2 fold change was inactive: 0.024.
Still for that read-out and setting: then C11orf68 (UniProt Q9H3H3), with inactive: -0.028; and CACTIN isoform 2 (UniProt Q8WUQ7), with inactive: -0.004; and C18orf32 (UniProt Q8TCD1), with inactive: -0.101.
Take C1GALT1 (UniProt Q9NS00): the log2 fold change was inactive: -0.087.
On the same count and under the same terms, then C17orf80 (UniProt Q9BSJ5), with inactive: 0.128.
On the same count and under the same terms, then CANX isoform 2 (UniProt P27824), with inactive: -0.025; and C4BPA (UniProt P04003), with inactive: 0.
The same measure, in the same setting: then C12orf29 (UniProt Q8N999), with inactive: 0.018; and CAB39 (UniProt Q9Y376), with inactive: 0.002; and BTRC (UniProt Q9Y297), with inactive: -0.012.
In the case of BUB1B isoform 3 (UniProt O60566), the log2 fold change was inactive: 0.02.
On the same count and under the same terms, the value for BTN2A1 (UniProt Q7KYR7) was inactive: -0.172; that for C12orf73 (UniProt Q69YU5) was inactive: -0.041.
Regarding C9orf78 (UniProt Q9NZ63), the log2 fold change was inactive: -0.002.
On the same count and under the same terms, then C1orf52 (UniProt Q8N6N3), with inactive: 0.019; and CAD (UniProt P27708), with inactive: 0.081; and CA13 (UniProt Q8N1Q1), with inactive: -0.129.
Still for that read-out and setting: the value for CALB1 (UniProt P05937) was inactive: -0.015; that for C1D (UniProt Q13901) was inactive: -0.027.
On the same count and under the same terms, the value for C16orf58 (UniProt Q96GQ5) was inactive: -0.01; that for C9orf72 (UniProt Q96LT7) was inactive: 0.006.
With C19orf53 (UniProt Q9UNZ5), the log2 fold change was inactive: 0.023.
The same measure, in the same setting: the value for CAPZB isoform 2 (UniProt P47756) was inactive: 0.001.
C7 (UniProt P10643): the log2 fold change was inactive: 0.205.
With C18orf25 isoform 2 (UniProt Q96B23), the log2 fold change is inactive: -0.113.
Consider CARD8 isoform 5 (UniProt Q9Y2G2), for which the log2 fold change was inactive: -0.018.

Compound in another experiment: Cn1cc(-c2ccc3c(c2)CCN3C(=O)Cc2cccc(C(F)(F)F)c2)c2c(N)ncnc21
Described as above. The gist of the method:
as §1
With C8orf76 (UniProt Q96K31), the log2 fold change is inactive: 0.025.
The same measure, in the same setting: the value for C6orf89 isoform 2 (UniProt Q6UWU4) was inactive: 0.053; that for CALCOCO1 (UniProt Q9P1Z2) was inactive: -0.034.
Regarding CALU isoform 4 (UniProt O43852), the log2 fold change is inactive: -0.023.
C1GALT1C1 (UniProt Q96EU7): the log2 fold change is inactive: 0.036.
On the same count and under the same terms, the value for C9orf40 (UniProt Q8IXQ3) was inactive: 0.086.
The same measure, in the same setting: the value for CAPRIN1 (UniProt Q14444) was inactive: -0.13; that for C11orf68 (UniProt Q9H3H3) was inactive: 0.023.
Take CACTIN isoform 2 (UniProt Q8WUQ7): the log2 fold change was inactive: -0.06.
On the same count and under the same terms, the value for C18orf32 (UniProt Q8TCD1) was inactive: 0.072.
Turning to C1GALT1 (UniProt Q9NS00), the log2 fold change is inactive: 0.003.
On the same count and under the same terms, the value for CARD19 isoform 2 (UniProt Q96LW7) was inactive: 0.165.
On the same count and under the same terms, the value for C17orf80 (UniProt Q9BSJ5) was inactive: 0.183; that for CANX isoform 2 (UniProt P27824) was inactive: -0.086; that for C4BPA (UniProt P04003) was inactive: 0.192.
Consider C12orf29 (UniProt Q8N999), for which the log2 fold change was inactive: -0.034.
On the same count and under the same terms, then CAB39 (UniProt Q9Y376), with inactive: 0.016.
The same measure, in the same setting: the value for BUB1B isoform 3 (UniProt O60566) was inactive: 0; that for BTN2A1 (UniProt Q7KYR7) was inactive: -0.044; that for C12orf73 (UniProt Q69YU5) was inactive: 0.
On the same count and under the same terms, the value for C9orf78 (UniProt Q9NZ63) was inactive: 0.002; that for C1orf52 (UniProt Q8N6N3) was inactive: -0.019.
CAD (UniProt P27708): the log2 fold change is inactive: -0.012.
Turning to CA13 (UniProt Q8N1Q1), the log2 fold change was inactive: -0.08.
Same read-out and setting: then CALB1 (UniProt P05937), with inactive: 0.013.
The same measure, in the same setting: then C16orf58 (UniProt Q96GQ5), with inactive: 0.084.
As for C9orf72 (UniProt Q96LT7), the log2 fold change was inactive: 0.085.
On the same count and under the same terms, the value for C19orf53 (UniProt Q9UNZ5) was inactive: -0.207; that for CAPZB isoform 2 (UniProt P47756) was inactive: 0.007; that for C7 (UniProt P10643) was inactive: 0.185.
Same read-out and setting: the value for C18orf25 isoform 2 (UniProt Q96B23) was inactive: 0.018.

These data come from the supplement of paper PMC10849652.
